Results are given in words; binding and its absence hold for the method and conditions named. In cells and extracts the contact can be indirect. Some binding calls cover weakened binding; strength is not graded here.
Key:
[1] = biological target: p50/Dynactin-2 (endogenous, HeLa) (human (endogenous in HeLa)) (UniProt Q13561); assay: co-IP; endogenous Dynactin-2 immunoprecipitated from HeLa cells with anti-Dynactin-2 or control IgG; cells first treated with 2 mM DSP and quenched with 10 mM Tris-HCl before lysis; Western blot
[2] = biological target: Integrin-Linked Kinase (endogenous, HeLa) (human (endogenous in HeLa)) (UniProt Q13418); assay: co-IP; endogenous ILK immunoprecipitated from HeLa (Kyoto) cells with ILK antibody or control IgG; Hepes-Chaps lysis buffer (40 mM Hepes HCl pH 7.4, 120 mM NaCl, 1 mM EDTA, 0.3% Chaps); Western blot
[3] = biological target: Flag-ILK (Integrin-Linked Kinase) (UniProt Q13418); assay: co-IP; Flag immunoprecipitation from HEK-293 cells stably expressing Flag or Flag-ILK; Western blot for Dynactin-2

The chains behind the UniProt entries cited, without tags or fusion partners.
UniProt Q13561: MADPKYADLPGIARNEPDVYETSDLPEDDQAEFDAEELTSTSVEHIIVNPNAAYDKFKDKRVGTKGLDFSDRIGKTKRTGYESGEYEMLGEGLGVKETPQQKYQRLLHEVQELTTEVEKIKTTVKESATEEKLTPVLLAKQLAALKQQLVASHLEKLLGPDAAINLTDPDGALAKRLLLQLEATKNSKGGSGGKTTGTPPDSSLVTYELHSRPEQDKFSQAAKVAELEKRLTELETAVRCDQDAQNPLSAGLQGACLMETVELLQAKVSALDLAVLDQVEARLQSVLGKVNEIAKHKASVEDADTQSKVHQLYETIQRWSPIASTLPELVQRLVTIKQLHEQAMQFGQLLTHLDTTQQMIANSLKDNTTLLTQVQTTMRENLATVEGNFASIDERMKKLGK
UniProt Q13418: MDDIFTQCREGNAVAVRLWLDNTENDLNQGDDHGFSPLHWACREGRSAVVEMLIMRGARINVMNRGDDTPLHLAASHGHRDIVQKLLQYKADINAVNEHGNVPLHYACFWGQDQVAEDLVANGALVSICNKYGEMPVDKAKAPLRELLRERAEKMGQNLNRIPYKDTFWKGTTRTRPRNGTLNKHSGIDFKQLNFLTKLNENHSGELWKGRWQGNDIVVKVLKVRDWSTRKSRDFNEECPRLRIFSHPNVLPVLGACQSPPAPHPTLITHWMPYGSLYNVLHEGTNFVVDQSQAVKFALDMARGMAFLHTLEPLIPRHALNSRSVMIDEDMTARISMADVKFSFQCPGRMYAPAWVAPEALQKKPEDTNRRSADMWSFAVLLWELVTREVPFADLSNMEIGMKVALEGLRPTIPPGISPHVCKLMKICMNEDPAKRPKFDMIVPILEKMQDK
UniProt Q14980: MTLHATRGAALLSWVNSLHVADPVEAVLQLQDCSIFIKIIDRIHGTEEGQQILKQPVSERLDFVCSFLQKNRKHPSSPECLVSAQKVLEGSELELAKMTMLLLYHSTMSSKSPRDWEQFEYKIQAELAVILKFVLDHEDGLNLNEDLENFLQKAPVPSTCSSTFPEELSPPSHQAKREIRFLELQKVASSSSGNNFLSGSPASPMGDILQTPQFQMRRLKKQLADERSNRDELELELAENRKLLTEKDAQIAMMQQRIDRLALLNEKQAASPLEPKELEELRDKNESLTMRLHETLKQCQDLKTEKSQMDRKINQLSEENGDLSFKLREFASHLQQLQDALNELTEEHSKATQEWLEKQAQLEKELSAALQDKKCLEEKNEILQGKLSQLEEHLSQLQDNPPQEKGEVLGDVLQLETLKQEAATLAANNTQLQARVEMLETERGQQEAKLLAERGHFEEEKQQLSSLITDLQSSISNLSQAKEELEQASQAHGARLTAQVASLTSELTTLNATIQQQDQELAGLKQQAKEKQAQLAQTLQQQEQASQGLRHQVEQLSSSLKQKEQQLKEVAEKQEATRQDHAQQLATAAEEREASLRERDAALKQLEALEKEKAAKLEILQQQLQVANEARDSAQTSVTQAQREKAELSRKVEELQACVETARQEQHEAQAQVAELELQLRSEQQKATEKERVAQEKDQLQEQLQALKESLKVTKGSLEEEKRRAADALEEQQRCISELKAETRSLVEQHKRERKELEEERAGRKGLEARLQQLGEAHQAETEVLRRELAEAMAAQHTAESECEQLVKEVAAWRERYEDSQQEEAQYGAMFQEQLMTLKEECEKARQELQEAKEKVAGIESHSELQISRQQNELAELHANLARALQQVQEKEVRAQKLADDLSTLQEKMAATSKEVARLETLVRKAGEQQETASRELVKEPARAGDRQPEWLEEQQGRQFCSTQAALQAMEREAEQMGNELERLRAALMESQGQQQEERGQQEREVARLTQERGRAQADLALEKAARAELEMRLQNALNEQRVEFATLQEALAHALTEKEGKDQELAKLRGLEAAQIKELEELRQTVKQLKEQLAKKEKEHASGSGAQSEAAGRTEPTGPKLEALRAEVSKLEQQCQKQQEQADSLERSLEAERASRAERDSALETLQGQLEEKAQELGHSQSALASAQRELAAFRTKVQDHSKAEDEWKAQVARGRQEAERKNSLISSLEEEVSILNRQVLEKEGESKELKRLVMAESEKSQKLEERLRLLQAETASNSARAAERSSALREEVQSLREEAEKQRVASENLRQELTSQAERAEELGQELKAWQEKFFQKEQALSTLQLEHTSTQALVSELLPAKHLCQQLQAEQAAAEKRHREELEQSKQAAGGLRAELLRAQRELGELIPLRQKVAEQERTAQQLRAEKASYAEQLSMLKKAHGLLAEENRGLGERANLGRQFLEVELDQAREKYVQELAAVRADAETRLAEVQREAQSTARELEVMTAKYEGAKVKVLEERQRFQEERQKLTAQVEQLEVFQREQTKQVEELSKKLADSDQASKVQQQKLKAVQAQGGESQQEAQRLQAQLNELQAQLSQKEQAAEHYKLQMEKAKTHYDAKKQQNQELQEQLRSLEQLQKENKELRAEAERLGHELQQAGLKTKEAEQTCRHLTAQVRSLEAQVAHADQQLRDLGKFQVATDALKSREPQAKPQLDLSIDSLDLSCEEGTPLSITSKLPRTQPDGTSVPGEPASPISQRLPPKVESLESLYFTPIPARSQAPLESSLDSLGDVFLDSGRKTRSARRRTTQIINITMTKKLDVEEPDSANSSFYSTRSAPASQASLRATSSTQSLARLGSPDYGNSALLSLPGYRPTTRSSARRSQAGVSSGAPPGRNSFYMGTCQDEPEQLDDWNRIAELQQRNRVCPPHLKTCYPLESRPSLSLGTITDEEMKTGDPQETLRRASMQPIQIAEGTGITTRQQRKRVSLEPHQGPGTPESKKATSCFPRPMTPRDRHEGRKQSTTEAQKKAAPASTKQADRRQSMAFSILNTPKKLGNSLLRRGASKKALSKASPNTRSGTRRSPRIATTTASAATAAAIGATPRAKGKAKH

Row | binding [2] | Substance | also measured
1 |  | Integrin-Linked Kinase (endogenous, HeLa) (from UniProt Q13418 1-452) | binding [1]: binds
2 | no binding | NuMa (endogenous, HeLa) (from UniProt Q14980 1-2115) | 
3 |  | p50/Dynactin-2 (endogenous, HEK-293) (from UniProt Q13561 1-401) | binding [3]: binds
4 | binds | p50/Dynactin-2 (endogenous, HeLa) (from UniProt Q13561 1-401) | 
